Measurements published in PubChem BioAssay AID1347076 (National Center for Advancing Translational Sciences (NCATS), 2019).
Hit rate of the full screen: of about 400,000 compounds, about 13,000 (3.2%) were called active. The inconclusive results got no clear call from the source; some entries with a clear call stand among them for comparison. Calls come from the whole dose curve; as a rule, active = well fitted cell-killing curve with a large enough effect; inconclusive = small, poorly fitted or top-dose-only effect, or effect the other way; inactive = flat fitted curve, though single readings scatter. A potency beside an inconclusive call is a rough fit, not a confirmed value.
% is set by controls: 0 for no effect and ±100 for the full control effect; potency is the fitted concentration of half-maximal effect.

Test: qHTS assay for MDR1-selective chemotherapeutics: Primary screen using the drug-selected MDR subline cells KB-V1; note: nearly all actives have a fitted effect of over 60% in size
Details: KB-V1 MDR cells viability, CellTiter-Glo, 72 h; activity change, negative = cytotoxicity: at 46.1 µM (top of the series)
Outline: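 KB-V1, DMEM (no phenol red) + 10% FBS; cpd pin-transferred, titration series; 72 h, 37 degrees C; CellTiter-Glo, luminescence. Data normalized, curve-fit.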
In the case of `CCOC(=O)c1cnc2c(cnn2C)c1Oc1ccc(OC)cc1`, the Potency is reported as inconclusive: 16.4 µM [cytotoxic, single point].
For `Oc1c(C(Nc2cccnc2)c2ccc(C(F)(F)F)cc2)ccc2cccnc12` (stereo not drawn), the “activity change, negative = cytotoxicity” value was inactive: 0%.
In the case of `COc1cccc(/C=N/NC(=O)CNC(=O)c2ccncc2)c1O`, the “activity change, negative = cytotoxicity” value is reported as inactive: -4.14%.
In the case of `O=C(/C=C/Nc1ccc(F)c(Cl)c1)c1ccco1`, the Potency is reported as inconclusive: 29.1 µM [cytotoxic, single point].
For `CCCNC(=O)C1(C)CCN(C(=O)c2oc3ccccc3c2C)C1` (stereo not drawn), the Potency was inconclusive: 23.1 µM [cytotoxic, single point].
In the case of `COc1cccc(CN(C)C(=O)c2ccccc2Sc2ccccc2C#N)c1`, the Potency is reported as inconclusive: 3.66 µM [cytotoxic, full curve].
For `CCN(CC)C(=O)N1CCN(c2c([N+](=O)[O-])c(=O)oc3ccccc23)CC1`, the Potency was inconclusive: 29.1 µM [rising, single point].
With `Cc1nc(CNS(=O)(=O)c2cccnc2)cs1` the “activity change, negative = cytotoxicity” value was inactive: 0.995%.
With `CC(OC(=O)C1CSC2(c3ccc(F)cc3)CCC(=O)N12)C(=O)NC(N)=O` (stereo not drawn) the Potency was inconclusive: 29.1 µM [rising, single point].
For `COc1cccc(C2c3[nH]c4ccccc4c3CCN2C(=O)Cn2cncn2)c1OC` (stereo not drawn), the Potency was inconclusive: 20.6 µM [rising, single point].
In the case of `COc1ccc(-c2cnnc(N/N=C/c3ccc(OC)c(OC)c3)n2)cc1`, the Potency is reported as inconclusive: 8.2 µM [cytotoxic, partial curve].
In the case of `COc1ccc(CCN(C)CCCN2CC(c3ccccc3)CC2=O)cc1OC` (stereo not drawn), the activity change, negative = cytotoxicity is reported as inconclusive: 8.48%.
With `COc1ccc(C2/C=C\CN(S(=O)(=O)/C=C/c3ccccc3)[C@H](Cc3ccccc3)C(=O)N2Cc2ccc(F)cc2)cc1` (stereo partly drawn) the “activity change, negative = cytotoxicity” value was inactive: -2.41%.
For `CCOC(=O)c1oc2ccccc2c1NC(=O)COc1ccc(F)cc1`, the Potency was active: 8.2 µM.
For `CCCN(CCC)C(=O)CC(c1ccccc1)c1ccco1` (stereo not drawn), the “activity change, negative = cytotoxicity” value was inactive: -4.87%.
In the case of `COc1ccc(NC(=O)COC(=O)c2ccc(OCc3ccc(Cl)cc3Cl)c(OC)c2)c(OC)c1`, the Potency is reported as inconclusive: 29.1 µM [cytotoxic, single point].
With `Fc1ccc(N2C(=S)SC(=Nc3ccccc3)C2=Nc2ccccc2)cc1` the “activity change, negative = cytotoxicity” value was inactive: -14%.
For `COc1cc(C)c(Cl)cc1S(=O)(=O)NCCCN1CCOCC1`, the Potency was inconclusive: 20.6 µM [cytotoxic, single point].
With `NNC(=O)CNC(c1ccccc1)c1cc(Br)ccc1NC(=O)c1ccc(Br)cc1` (stereo not drawn) the “activity change, negative = cytotoxicity” value was inactive: -24%.
With `OCCNC(=S)Nc1ccc(Oc2ccccc2)cc1` the Potency was inconclusive: 29.1 µM [rising, single point].
With `O=S(=O)(c1ccc(F)cc1)N1CCC(N2CCCCCC2)CC1` the “activity change, negative = cytotoxicity” value was inactive: 4.74%.
With `COc1ccc(CC(=O)OCC(=O)c2ccc(OC)c(OC)c2)cc1` the “activity change, negative = cytotoxicity” value was inactive: -9.79%.
With `COc1ccc(OC)c(NC(=O)C2CC(/C=C/c3ccccc3)=NO2)c1` (stereo not drawn) the “activity change, negative = cytotoxicity” value was inactive: -0.0241%.
For `CCSc1ccccc1C(=O)N1CCC2(CC1)CC(=O)c1ccccc1O2`, the “activity change, negative = cytotoxicity” value was inactive: -22.9%.
For `CCOC(=O)[C@@H](C)NS(=O)(=O)N(Cc1ccccc1)[C@H](C(=O)OC)C(C)C`, the Potency was inconclusive: 16.4 µM [cytotoxic, partial curve, poor fit].
For `O=C(CSc1ncn[nH]1)N1N=C2/C(=C/c3ccccc3)CCCC2C1c1ccccc1` (stereo not drawn), the Potency was inconclusive: 32.6 µM [cytotoxic, single point].
In the case of `Cc1ccccc1-n1c(SCc2csc(Nc3ccccc3)n2)nnc1-c1cccnc1`, the Potency is reported as inconclusive: 9.2 µM [cytotoxic, partial curve].
With `COC(=O)c1ccc(CNC(=O)c2nc(Cn3nc(C)c(Br)c3C)no2)cc1` the Potency was inconclusive: 14.6 µM [cytotoxic, partial curve].
In the case of `CC1CN(CC(O)COC(c2ccc(Cl)cc2)c2ccc(Cl)cc2)CC(C)O1` (stereo not drawn), the Potency is reported as inconclusive: 20.6 µM [cytotoxic, single point].
For `CCc1c(C(=O)Nc2ccncc2)csc1C`, the Potency was active: 16.4 µM.
In the case of `Cc1ccc(NC(=O)c2ccc3ccccc3n2)cc1S(=O)(=O)N(C)C`, the Potency is reported as inconclusive: 16.4 µM [cytotoxic, partial curve].
With `COc1ccc(NC(=O)CN2C(=O)NC3(CCCc4ccccc43)C2=O)c(OC)c1` (stereo not drawn) the “activity change, negative = cytotoxicity” value was inactive: 17.1%.
In the case of `O=C(Cn1nnc(-c2ccc(CN3CCOCC3)cc2)n1)NC1CCCCC1`, the Potency is reported as active: 23.1 µM.
In the case of `O=C(NCCCN1CCCC1=O)c1c(O)nc2ccccn2c1=O`, the Potency is reported as inconclusive: 18.4 µM [cytotoxic, single point].
In the case of `c1ccc(Nc2nc(N3CCOCC3)nc(N3CCOCC3)n2)cc1`, the Potency is reported as inconclusive: 25.9 µM [cytotoxic, partial curve, poor fit].
With `Cc1cc(C(=O)OCC(=O)N2CCCCCC2)ccc1[N+](=O)[O-]` the Potency was inconclusive: 29.1 µM [rising, single point].
For `COc1ccc2noc3c2c1C(=O)c1ccccc1-3`, the Potency was inconclusive: 29.1 µM [cytotoxic, single point].
In the case of `CCc1nnc(NC(=O)CSc2nc3c([nH]c4ccccc43)c(=O)n2-c2ccc(C)cc2)s1`, the “activity change, negative = cytotoxicity” value is reported as inactive: -15.8%.
For `COc1ccc(OCCOc2ccc(N(C)S(=O)(=O)c3ccccc3)cc2)cc1`, the “activity change, negative = cytotoxicity” value was inactive: -25.7%.
In the case of `CCC/C=N/NC(=O)c1cc(-c2ccccc2)nc2ccccc12`, the “activity change, negative = cytotoxicity” value is reported as inactive: -2.75%.
With `COc1ccc(C2N=C(c3ccccc3)C(C)(C)N2O)cc1OC` (stereo not drawn) the Potency was inconclusive: 20.6 µM [cytotoxic, partial curve, poor fit].
With `CCOC1OC(=O)C(Cl)=C1Nc1cc(C)ccc1C` (stereo not drawn) the Potency was inconclusive: 16.4 µM [cytotoxic, single point].
In the case of `CCOc1ccc(CC(=O)NNC(=O)/C=C/C(=O)O)cc1`, the Potency is reported as inconclusive: 10.3 µM [rising, partial curve, poor fit].
For `O=C(Cn1ncc2c(=O)oc3ccccc3c21)N1CCC(N2CCCCC2)CC1`, the Potency was inconclusive: 0.116 µM [rising, full curve].
In the case of `O=C(CN1CCN(c2ccccn2)CC1)Nc1ccccc1C(=O)Nc1ccccc1`, the Potency is reported as inconclusive: 20.6 µM [cytotoxic, partial curve, poor fit].
For `COc1cccc(NC(=O)CNC(=O)N2CC(=O)Nc3ccccc32)c1`, the Potency was inconclusive: 6.51 µM [rising, full curve].
In the case of `Fc1ccc(SCCc2ccncc2)cc1`, the Potency is reported as inconclusive: 29.1 µM [cytotoxic, single point].
For `CC(C)(C)OC(=O)NC1CC2CCCC(C1)N2Cc1ccccc1` (stereo not drawn), the activity change, negative = cytotoxicity was inconclusive: -5.09%.
With `Cc1ccc(C)c(CN2C(=O)COc3ccc(C(=O)c4ccccc4C(=O)O)cc32)c1` the Potency was inconclusive: 5.17 µM [cytotoxic, full curve].
With `CN(Cc1ccccc1)C(=O)COC(=O)c1ccc[nH]c1=O` the “activity change, negative = cytotoxicity” value was inactive: -2.27%.
In the case of `CCOC(=O)C1=C(COC(=O)/C=C/c2ccccc2)NC(=O)NC1C` (stereo not drawn), the Potency is reported as inconclusive: 16.4 µM [cytotoxic, single point].
In the case of `Cc1csc(NC(=O)C2CCCCN2S(=O)(=O)c2ccccc2)n1` (stereo not drawn), the Potency is reported as inconclusive: 25.9 µM [cytotoxic, single point].
In the case of `O=[N+]([O-])c1cccc(OCC(O)CN2CCN(S(=O)(=O)c3cc(Cl)ccc3Cl)CC2)c1` (stereo not drawn), the Potency is reported as inconclusive: 8.2 µM [cytotoxic, partial curve].
For `COc1cc(C(=O)OCc2csc(CC(=O)Nc3ccccc3C)n2)ccc1OCC(C)C`, the “activity change, negative = cytotoxicity” value was inactive: -1.84%.
For `COc1cccc(NC(=O)Cn2c3ccccc3c3nc4n(c(=O)c32)CCCS4)c1`, the “activity change, negative = cytotoxicity” value was inactive: -1.89%.
In the case of `COc1ccc(OCCn2cc(C(=O)c3ccco3)c3ccccc32)cc1`, the Potency is reported as inconclusive: 29.1 µM [cytotoxic, single point].
For `Cc1onc(-c2ccccc2)c1CNC(=O)Nc1ccccc1`, the Potency was inconclusive: 29.1 µM [cytotoxic, single point].
In the case of `COc1ccc(C2CC(=O)c3cnn(-c4nc(C)cc(C)n4)c3C2)cc1` (stereo not drawn), the Potency is reported as inconclusive: 20.6 µM [cytotoxic, single point].
For `COc1ccc(-c2nc(C)c(CCNC(=O)c3ccco3)s2)cc1`, the Potency was inconclusive: 7.31 µM [cytotoxic, partial curve].
In the case of `Cc1ccc(NC(=O)Nc2ccccc2)nc1`, the “activity change, negative = cytotoxicity” value is reported as inactive: 0.506%.
With `CC1=C(C(=O)N(C)C)CC(CC(=O)NCC2CCCCC2)C(=O)N1Cc1ccc(F)cc1` (stereo not drawn) the “activity change, negative = cytotoxicity” value was inactive: 5.82%.
With `O=C(/C=C/c1cccs1)Nc1ccc(Br)cn1` the Potency was active: 0.366 µM.
For `CCOC(=O)c1ccccc1NC(=O)c1ccc2c(SCC(=O)O)c3c(nc2c1)CCCC3`, the Potency was inconclusive: 0.116 µM [rising, partial curve, poor fit].
With `O=c1c(-c2ccc([N+](=O)[O-])cc2)coc2c(O)c(O)ccc12` the Potency was inconclusive: 20.6 µM [cytotoxic, single point].
For `c1ccc(Cc2nc3ccccc3n2Cc2ccccc2)cc1`, the Potency was inconclusive: 29.1 µM [cytotoxic, single point].
For `CCc1ccc(NC(=O)Nc2ccon2)cc1`, the “activity change, negative = cytotoxicity” value was inactive: 23%.
With `O=C(CN1CCN(Cc2ccc3c(c2)OCO3)CC1)Nc1ccc2c(c1)OCCO2` the Potency was inconclusive: 20.6 µM [cytotoxic, partial curve, poor fit].
In the case of `CCOc1cc(N2CCOCC2)c(OCC)cc1NC(=O)[C@H](C)NC(=O)c1ccco1`, the “activity change, negative = cytotoxicity” value is reported as inactive: -14.8%.
For `CC1CCCCC1NC(=O)NC(=O)COC(=O)C1=NN(c2ccccc2)C(=O)CC1` (stereo not drawn), the Potency was inconclusive: 20.6 µM [rising, single point].
With `Cc1[nH]c2ccc(C(=O)OC(C)C(=O)NCc3ccccc3)cc2c1C` (stereo not drawn) the Potency was active: 16.4 µM.
In the case of `COC(=O)c1cccc(-n2sc3ccccc3c2=O)c1`, the “activity change, negative = cytotoxicity” value is reported as inactive: 4.6%.
For `CCCCn1nnnc1C(c1cc2ccccc2o1)N1CCN(CC(=O)N2CCCC2)CC1` (stereo not drawn), the “activity change, negative = cytotoxicity” value was inactive: 4.43%.
With `Cc1ccc(S(=O)(=O)n2nc(-c3ccccc3)nc2NCc2ccccc2Cl)cc1` the “activity change, negative = cytotoxicity” value was inactive: 9.14%.
